These are yes or no findings as the source states them, for the method shown. In cells and extracts the contact can be indirect. A result given as binding can be weak or reduced; the word gives no strength. Sequences can lack the tags named with a protein.

The assay concerns the target β-Trcp, Flag-tagged (Trcp-Flag expression vector). Briefly: co-IP; HEK293 cells transfected with the indicated plasmids, 48 h, with or without MG132 for 6-8 h before harvest; lysis in 50 mM Tris-HCl pH 7.4, 150 mM NaCl, 5 mM EDTA, 1% Triton X-100; Flag-M2 beads, 4 °C, 4 h; Western blot with antibodies against the tags. A general note: Immunoblotting shows a protein as a band on a membrane.

B1: mouse Elongator protein 3, N-terminal Myc (pCS2+-N-Myc) (enzyme, UniProt Q9CZX0-2 1-566)
chain: MRQKRKGAKYVGQGRKGGSGFSEITGDLSPAELMMLTIGDVIKQLVEAHEQGKDVDLNKMKTKTAAKYGLASQPRLVDIIAAVPPHYRKILIPKLKAKPVRTASGIAVVAVMCKPHRCPHISFTGNICIYCPGGPDSDFEYSTQSYTGYEPTSMRAIRARYDPFLQTRHRIEQLKQLGHSVDKVEFIVMGGTFMALPEEYRDYFIRSLHDALSGHTSNNIHEAIKYSERSFTKCVGITIETRPDYCMKRHLSDMLTYGCTRLEIGVQSVYEDVARDTNRGHTVKAACESFHLAKDSGFKVVTHMMPDLPNVGLERDIEQFIEFFENPAFRPDGLKLYPTLVIRGTGLYELWKSGRYRSYSPSDLIELVARILALVPPWTRVYRVQRDIPMPLVSSGVEHGNLRELAFARMKDLGIQCRDVRTREVGIQEIHHRVRPYQVELVRRDYVANGGWETFLSYEDPDQDILIGLLRLRKCSEETFRFELGGGVSIVRELHVYGSVVPVSSRDPTKFQHQGFGMLLMEEAERIAREEHGSGKMAVISGVGTRNYYRKIGYRLQGPYMVKMLK
In the case of B1, the binding result is on record as “binds”.

The record behind these values is article PMC4870573.
